From the supplement of paper PMC6411743
± gives the standard deviation of the averaged measurements. This is a selection; strong and weak results do not stand in their true shares. Small differences around the control level are noise.

Chains of the proteins cited; added tags and fusions are not shown. Lines headed by an entry give the natural chain unless they say otherwise; changes in a name come on top.
UniProt Q15393: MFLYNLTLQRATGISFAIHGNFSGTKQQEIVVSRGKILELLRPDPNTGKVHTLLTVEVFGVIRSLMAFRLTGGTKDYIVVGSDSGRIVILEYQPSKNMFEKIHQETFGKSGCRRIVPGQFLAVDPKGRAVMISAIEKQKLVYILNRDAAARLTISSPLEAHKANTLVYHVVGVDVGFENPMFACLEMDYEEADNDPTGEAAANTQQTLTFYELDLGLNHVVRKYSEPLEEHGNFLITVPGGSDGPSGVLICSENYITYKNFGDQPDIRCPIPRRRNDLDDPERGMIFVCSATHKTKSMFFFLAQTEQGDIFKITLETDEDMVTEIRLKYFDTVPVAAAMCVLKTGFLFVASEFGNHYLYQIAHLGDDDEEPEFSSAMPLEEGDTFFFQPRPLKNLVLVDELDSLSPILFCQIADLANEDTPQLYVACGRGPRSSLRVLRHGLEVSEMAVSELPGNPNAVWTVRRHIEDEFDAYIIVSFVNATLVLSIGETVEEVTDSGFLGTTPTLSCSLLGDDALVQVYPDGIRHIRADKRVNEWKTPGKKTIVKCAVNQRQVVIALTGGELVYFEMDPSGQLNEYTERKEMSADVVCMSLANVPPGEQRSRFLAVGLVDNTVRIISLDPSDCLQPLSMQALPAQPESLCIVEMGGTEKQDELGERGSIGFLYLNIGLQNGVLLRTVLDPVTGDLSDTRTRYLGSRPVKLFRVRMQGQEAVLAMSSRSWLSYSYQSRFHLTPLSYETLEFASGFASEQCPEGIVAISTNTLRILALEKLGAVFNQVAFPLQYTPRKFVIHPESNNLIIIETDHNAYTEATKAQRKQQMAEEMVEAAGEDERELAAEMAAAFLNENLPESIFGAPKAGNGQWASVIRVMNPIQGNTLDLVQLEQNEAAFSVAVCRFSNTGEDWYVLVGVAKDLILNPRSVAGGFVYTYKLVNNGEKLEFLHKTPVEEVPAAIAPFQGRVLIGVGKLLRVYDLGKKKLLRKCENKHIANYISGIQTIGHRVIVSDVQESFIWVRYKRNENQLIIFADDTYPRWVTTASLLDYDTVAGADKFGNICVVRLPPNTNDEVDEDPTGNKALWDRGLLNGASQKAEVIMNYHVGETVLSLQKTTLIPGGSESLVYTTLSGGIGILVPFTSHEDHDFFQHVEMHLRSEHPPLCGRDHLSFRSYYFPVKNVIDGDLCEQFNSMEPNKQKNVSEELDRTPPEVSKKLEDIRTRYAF
UniProt Q15819: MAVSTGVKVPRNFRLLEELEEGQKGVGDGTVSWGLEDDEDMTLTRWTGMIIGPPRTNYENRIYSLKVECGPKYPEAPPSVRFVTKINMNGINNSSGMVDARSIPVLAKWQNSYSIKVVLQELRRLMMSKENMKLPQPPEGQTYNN
UniProt Q14289, whole entry, looked up: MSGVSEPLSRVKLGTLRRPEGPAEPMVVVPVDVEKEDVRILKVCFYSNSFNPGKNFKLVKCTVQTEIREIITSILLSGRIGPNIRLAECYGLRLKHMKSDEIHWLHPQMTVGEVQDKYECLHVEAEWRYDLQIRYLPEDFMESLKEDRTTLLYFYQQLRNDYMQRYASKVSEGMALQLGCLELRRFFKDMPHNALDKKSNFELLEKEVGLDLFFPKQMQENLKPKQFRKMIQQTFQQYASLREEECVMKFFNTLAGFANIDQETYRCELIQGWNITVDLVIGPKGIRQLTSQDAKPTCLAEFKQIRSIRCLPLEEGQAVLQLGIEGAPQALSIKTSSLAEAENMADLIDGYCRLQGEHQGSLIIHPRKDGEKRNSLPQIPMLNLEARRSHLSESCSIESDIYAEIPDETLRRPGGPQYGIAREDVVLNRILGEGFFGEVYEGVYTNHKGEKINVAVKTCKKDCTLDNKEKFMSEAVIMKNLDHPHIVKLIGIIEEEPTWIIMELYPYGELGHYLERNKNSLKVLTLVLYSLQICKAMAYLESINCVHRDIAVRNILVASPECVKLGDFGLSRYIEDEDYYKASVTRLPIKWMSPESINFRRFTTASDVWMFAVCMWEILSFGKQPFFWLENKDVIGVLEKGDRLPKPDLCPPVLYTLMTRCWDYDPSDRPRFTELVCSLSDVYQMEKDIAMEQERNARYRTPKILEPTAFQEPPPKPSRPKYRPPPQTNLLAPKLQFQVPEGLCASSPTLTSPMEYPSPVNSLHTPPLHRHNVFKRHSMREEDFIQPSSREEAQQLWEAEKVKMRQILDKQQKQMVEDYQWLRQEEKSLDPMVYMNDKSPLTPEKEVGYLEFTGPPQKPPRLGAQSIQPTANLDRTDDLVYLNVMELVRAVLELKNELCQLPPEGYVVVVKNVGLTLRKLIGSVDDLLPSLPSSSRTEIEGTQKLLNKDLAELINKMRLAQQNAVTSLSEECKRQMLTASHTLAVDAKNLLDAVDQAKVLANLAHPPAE
UniProt Q14677: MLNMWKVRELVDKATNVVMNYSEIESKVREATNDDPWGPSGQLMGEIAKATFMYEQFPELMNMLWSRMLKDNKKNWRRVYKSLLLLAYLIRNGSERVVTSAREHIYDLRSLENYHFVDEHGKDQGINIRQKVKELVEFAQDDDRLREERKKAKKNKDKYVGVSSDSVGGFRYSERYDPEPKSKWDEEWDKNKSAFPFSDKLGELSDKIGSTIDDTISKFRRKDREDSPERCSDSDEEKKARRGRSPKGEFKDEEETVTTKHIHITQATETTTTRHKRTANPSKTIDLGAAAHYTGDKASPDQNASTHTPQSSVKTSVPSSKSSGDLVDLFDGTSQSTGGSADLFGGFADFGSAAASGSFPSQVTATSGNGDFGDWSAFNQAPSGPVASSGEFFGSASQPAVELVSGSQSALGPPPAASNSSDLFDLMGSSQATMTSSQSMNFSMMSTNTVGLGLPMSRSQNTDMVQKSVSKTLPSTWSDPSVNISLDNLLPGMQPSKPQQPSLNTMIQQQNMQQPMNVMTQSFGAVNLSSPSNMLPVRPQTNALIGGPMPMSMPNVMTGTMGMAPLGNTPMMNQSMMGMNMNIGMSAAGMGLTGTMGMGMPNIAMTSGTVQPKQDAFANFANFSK
UniProt Q499Z4: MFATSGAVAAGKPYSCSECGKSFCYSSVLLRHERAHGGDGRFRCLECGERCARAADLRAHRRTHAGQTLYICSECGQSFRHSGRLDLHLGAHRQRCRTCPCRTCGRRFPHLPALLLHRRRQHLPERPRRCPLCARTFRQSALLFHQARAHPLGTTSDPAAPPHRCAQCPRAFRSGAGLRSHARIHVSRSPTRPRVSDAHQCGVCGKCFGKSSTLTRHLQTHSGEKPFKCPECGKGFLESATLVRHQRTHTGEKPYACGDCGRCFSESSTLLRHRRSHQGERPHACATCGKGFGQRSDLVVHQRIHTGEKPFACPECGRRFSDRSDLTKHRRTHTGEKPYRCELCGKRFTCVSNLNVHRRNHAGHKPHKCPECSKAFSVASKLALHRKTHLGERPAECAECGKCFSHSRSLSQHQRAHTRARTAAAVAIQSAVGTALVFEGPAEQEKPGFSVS
UniProt Q4G0J3: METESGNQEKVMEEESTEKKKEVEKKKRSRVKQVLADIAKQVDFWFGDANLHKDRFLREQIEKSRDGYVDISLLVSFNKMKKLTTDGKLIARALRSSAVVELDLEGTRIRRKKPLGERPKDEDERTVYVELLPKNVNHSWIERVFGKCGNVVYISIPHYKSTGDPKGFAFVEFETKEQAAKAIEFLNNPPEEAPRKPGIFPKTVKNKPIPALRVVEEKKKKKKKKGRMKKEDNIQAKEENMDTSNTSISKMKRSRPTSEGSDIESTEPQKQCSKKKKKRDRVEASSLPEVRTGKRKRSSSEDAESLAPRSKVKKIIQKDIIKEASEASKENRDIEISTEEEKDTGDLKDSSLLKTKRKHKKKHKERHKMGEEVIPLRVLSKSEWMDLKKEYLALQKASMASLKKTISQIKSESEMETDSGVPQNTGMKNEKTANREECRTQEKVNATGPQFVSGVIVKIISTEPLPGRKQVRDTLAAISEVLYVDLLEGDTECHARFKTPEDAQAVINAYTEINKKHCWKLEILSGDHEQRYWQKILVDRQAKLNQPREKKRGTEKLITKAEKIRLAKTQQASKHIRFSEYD
UniProt Q4FZB7: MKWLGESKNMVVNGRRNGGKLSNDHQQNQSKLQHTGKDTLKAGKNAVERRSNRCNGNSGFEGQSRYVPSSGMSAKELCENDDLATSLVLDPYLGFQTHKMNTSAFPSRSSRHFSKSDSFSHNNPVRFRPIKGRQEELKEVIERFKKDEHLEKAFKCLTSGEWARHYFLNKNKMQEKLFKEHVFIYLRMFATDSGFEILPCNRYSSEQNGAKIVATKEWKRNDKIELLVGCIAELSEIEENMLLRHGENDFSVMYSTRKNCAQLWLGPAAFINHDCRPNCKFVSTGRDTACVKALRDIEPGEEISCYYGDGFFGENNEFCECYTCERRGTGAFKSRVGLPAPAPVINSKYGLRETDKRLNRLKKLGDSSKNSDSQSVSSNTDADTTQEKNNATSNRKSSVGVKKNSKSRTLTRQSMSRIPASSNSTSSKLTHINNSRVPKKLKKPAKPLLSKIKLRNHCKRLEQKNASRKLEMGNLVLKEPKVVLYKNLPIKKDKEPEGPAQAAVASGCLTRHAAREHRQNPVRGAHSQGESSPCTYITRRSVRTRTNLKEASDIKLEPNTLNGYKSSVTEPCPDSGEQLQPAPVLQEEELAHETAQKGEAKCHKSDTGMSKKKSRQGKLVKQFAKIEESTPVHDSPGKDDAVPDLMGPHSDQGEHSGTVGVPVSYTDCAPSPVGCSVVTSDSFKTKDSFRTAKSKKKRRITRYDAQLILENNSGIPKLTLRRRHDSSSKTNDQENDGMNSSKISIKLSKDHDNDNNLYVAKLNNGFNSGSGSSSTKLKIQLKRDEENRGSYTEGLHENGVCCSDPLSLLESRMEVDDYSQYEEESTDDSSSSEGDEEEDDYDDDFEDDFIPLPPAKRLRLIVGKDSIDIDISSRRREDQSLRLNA
UniProt Q15397: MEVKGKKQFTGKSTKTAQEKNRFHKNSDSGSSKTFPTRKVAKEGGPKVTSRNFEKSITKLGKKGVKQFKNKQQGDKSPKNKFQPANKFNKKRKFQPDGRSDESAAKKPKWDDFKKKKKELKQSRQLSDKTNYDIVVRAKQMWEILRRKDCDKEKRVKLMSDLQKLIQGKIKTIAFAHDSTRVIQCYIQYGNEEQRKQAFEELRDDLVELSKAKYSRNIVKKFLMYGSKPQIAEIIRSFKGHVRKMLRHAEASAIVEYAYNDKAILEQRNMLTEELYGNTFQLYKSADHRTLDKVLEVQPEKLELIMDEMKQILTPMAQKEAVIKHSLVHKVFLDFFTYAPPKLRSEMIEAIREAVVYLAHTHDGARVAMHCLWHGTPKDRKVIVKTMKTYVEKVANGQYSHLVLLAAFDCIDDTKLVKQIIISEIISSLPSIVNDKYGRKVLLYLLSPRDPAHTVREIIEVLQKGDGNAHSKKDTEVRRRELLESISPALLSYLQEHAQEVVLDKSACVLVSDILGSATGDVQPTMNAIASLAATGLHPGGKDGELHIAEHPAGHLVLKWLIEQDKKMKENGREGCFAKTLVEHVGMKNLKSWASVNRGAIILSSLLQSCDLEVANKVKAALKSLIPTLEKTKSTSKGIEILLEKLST
UniProt Q16611: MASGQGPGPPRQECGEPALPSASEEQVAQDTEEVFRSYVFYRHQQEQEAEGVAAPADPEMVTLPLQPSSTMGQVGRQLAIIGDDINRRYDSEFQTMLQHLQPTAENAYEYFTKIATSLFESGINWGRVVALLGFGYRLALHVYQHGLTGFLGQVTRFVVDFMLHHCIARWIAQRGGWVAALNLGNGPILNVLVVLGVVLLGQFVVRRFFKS
UniProt Q16533: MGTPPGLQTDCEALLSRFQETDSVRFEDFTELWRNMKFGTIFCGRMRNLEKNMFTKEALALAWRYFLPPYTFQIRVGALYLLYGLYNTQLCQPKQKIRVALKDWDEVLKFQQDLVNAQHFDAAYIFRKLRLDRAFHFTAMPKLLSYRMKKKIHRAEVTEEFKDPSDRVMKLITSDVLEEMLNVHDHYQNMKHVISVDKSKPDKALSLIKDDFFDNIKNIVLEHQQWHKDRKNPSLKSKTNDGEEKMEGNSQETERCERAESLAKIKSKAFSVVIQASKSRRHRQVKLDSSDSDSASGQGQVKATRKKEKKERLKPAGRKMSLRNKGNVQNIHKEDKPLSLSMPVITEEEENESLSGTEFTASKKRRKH
UniProt Q15506: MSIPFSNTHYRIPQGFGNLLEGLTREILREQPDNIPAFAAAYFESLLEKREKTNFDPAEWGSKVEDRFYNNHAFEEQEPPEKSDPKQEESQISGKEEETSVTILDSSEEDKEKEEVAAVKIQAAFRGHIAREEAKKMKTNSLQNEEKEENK
UniProt Q15388, whole entry: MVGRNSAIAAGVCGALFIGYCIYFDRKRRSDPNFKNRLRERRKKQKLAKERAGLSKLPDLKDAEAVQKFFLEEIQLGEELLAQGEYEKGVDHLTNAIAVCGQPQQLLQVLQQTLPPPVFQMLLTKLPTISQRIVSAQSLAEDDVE

Compound: Nc1ncnc2c1ncn2[C@@H]1O[C@H](COP(=O)(O)OP(=O)(O)OP(=O)(O)O)[C@@H](O)[C@H]1O [adenosine triphosphate]
Experiment: NP40-soluble protein abundance relative to vehicle (solubility fold change) (ratio); higher = more soluble protein in presence of ATP
Summary of the method: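 In three independent experiments, Jurkat crude lysate made by Dounce homogenisation was treated for 10 min at room temperature and then 3 min at 37 °C with eight concentrations ranging from 0.1 to 10 mM. It was then solubilised with 0.8% NP40 plus benzonase for 60 min at 4 °C and ultracentrifuged. The supernatant was TMT-labelled for LC-MS/MS, and each value is the fold change against the detergent-processed vehicle for the same replicate, using vsn-normalised intensities.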

Target | NP40-soluble protein abundance (concentration: 0.1mM) | NP40-soluble protein abundance (concentration: 0.5mM) | NP40-soluble protein abundance (concentration: 1mM) | NP40-soluble protein abundance (concentration: 2mM) | NP40-soluble protein abundance (concentration: 4mM) | NP40-soluble protein abundance (concentration: 6mM) | NP40-soluble protein abundance (concentration: 8mM) | NP40-soluble protein abundance (concentration: 10mM)
SF3B3 (UniProt Q15393) | 1.05 ± 0.027 | 1.09 ± 0.024 | 1.12 ± 0.072 | 1.11 ± 0.052 | 1.15 ± 0.072 | 1.1 ± 0.032 | 1.188 ± 0.0092 | 1.19 ± 0.037
ESPL1 (UniProt Q14674) | 0.932 ± 0.24 | 0.99 ± 0.096 |  |  |  |  |  | 
UniProt Q14155-1 | 1.02 ± 0.011 | 1.03 ± 0.065 | 1 ± 0.011 | 0.9849 ± 0.0056 | 0.97 ± 0.013 | 1.02 ± 0.05 | 0.976 ± 0.024 | 0.962 ± 0.034
UBE2V2 (UniProt Q15819) | 0.923 ± 0.029 | 0.925 ± 0.04 | 0.932 ± 0.018 | 0.904 ± 0.027 | 0.9 ± 0.045 | 0.922 ± 0.032 | 0.885 ± 0.035 | 0.853 ± 0.028
UniProt Q14289 and related entries | 1.04 ± 0.036 | 1.06 ± 0.072 | 1.03 ± 0.04 | 1.04 ± 0.042 | 1.02 ± 0.04 | 0.981 ± 0.06 | 1.01 ± 0.04 | 1 ± 0.064
UniProt Q14677 and related entries | 1.01 ± 0.029 | 1.04 ± 0.04 | 1.04 ± 0.042 | 1.05 ± 0.02 | 1.04 ± 0.028 | 1.11 ± 0.027 | 1.07 ± 0.033 | 1.09 ± 0.055
ZNF672 (UniProt Q499Z4) | 0.985 ± 0.06 | 1.12 ± 0.17 | 0.994 ± 0.061 | 1.07 ± 0.0039 | 1 ± 0.089 | 0.93 ± 0.078 | 0.996 ± 0.047 | 0.995 ± 0.016
UniProt Q4G0J3 and related entries | 1.04 ± 0.023 | 1.1 ± 0.036 | 1.17 ± 0.046 | 1.22 ± 0.047 | 1.36 ± 0.021 | 1.507 ± 0.0071 | 1.56 ± 0.049 | 1.71 ± 0.018
UniProt Q4FZB7 | 0.968 ± 0.17 | 1.01 ± 0.14 | 0.985 ± 0.15 | 1.1 ± 0.23 | 1.07 ± 0.11 | 1.01 ± 0.16 | 1.01 ± 0.029 | 0.983 ± 0.065
UniProt Q15397 | 1.06 ± 0.032 | 1.17 ± 0.018 | 1.28 ± 0.054 | 1.39 ± 0.058 | 1.53 ± 0.073 | 1.6 ± 0.13 | 1.7 ± 0.042 | 1.96 ± 0.12
ERCC6L (UniProt Q2NKX8) | 1.02 ± 0.05 | 1.03 ± 0.044 | 0.999 ± 0.024 | 0.986 ± 0.026 | 0.971 ± 0.024 | 0.999 ± 0.033 | 0.966 ± 0.0079 | 0.978 ± 0.017
UniProt Q14643 and related entries | 1.04 ± 0.041 | 1.04 ± 0.031 | 1.05 ± 0.071 | 0.999 ± 0.065 | 1 ± 0.041 | 0.961 ± 0.07 | 1.02 ± 0.027 | 0.995 ± 0.045
UniProt Q32P28 and related entries | 1.03 ± 0.047 | 1.07 ± 0.062 | 1.13 ± 0.023 | 1.15 ± 0.025 | 1.2 ± 0.077 | 1.19 ± 0.043 | 1.22 ± 0.051 | 1.198 ± 0.0094
UniProt Q16611 and related entries | 0.951 ± 0.034 | 0.91 ± 0.1 | 1.01 ± 0.036 | 0.985 ± 0.023 | 1.02 ± 0.09 | 1.05 ± 0.045 | 0.997 ± 0.077 | 0.993 ± 0.087
SNAPC1 (UniProt Q16533) | 1.05 ± 0.13 | 1.04 ± 0.024 |  |  |  |  |  | 
SPA17 (UniProt Q15506) | 0.925 ± 0.19 | 0.875 ± 0.026 |  |  |  |  |  | 
UniProt Q15669 | 0.983 ± 0.026 | 0.997 ± 0.022 |  |  |  |  |  | 
URB2 (UniProt Q14146) | 1.07 ± 0.025 | 1.07 ± 0.061 | 1.21 ± 0.1 | 1.36 ± 0.15 | 1.61 ± 0.058 | 1.68 ± 0.11 | 2.04 ± 0.16 | 2.19 ± 0.46
UniProt Q3KQU3 and related entries | 0.944 ± 0.1 | 0.989 ± 0.12 | 1.08 ± 0.1 | 1.03 ± 0.11 | 1.09 ± 0.13 | 1.13 ± 0.26 | 1.1 ± 0.16 | 1.14 ± 0.13
ITPR3 (UniProt Q14573) | 1.05 ± 0.052 | 1.03 ± 0.072 |  |  |  |  |  | 
UniProt Q2KHT3 and related entries | 1.02 ± 0.0027 | 1.05 ± 0.04 | 1.04 ± 0.045 | 0.967 ± 0.1 | 0.963 ± 0.11 | 0.999 ± 0.093 | 1.04 ± 0.15 | 1.02 ± 0.17
UniProt Q15906 and related entries | 1.03 ± 0.053 | 1.1 ± 0.047 | 1.13 ± 0.12 | 1.13 ± 0.092 | 1.22 ± 0.12 | 1.27 ± 0.23 | 1.24 ± 0.12 | 1.26 ± 0.13
TOMM20 (UniProt Q15388) | 0.801 ± 0.18 | 0.82 ± 0.26 | 0.921 ± 0.086 | 0.896 ± 0.044 | 0.903 ± 0.11 | 0.886 ± 0.041 | 0.8947 ± 0.0073 | 0.803 ± 0.21

Looked up one by one from the entries so far, two records:
Target | NP40-soluble protein abundance (concentration: 0.1mM) | NP40-soluble protein abundance (concentration: 0.5mM) | NP40-soluble protein abundance (concentration: 1mM) | NP40-soluble protein abundance (concentration: 2mM) | NP40-soluble protein abundance (concentration: 4mM) | NP40-soluble protein abundance (concentration: 6mM) | NP40-soluble protein abundance (concentration: 8mM) | NP40-soluble protein abundance (concentration: 10mM)
UniProt Q14289 and related entries | 1.04 ± 0.036 | 1.06 ± 0.072 | 1.03 ± 0.04 | 1.04 ± 0.042 | 1.02 ± 0.04 | 0.981 ± 0.06 | 1.01 ± 0.04 | 1 ± 0.064
UniProt Q3KQU3 and related entries | 0.944 ± 0.1 | 0.989 ± 0.12 | 1.08 ± 0.1 | 1.03 ± 0.11 | 1.09 ± 0.13 | 1.13 ± 0.26 | 1.1 ± 0.16 | 1.14 ± 0.13
